{"source": "patent EP0620225B1", "about": "“Cephalosporin derivatives” (Basilea Pharmaceutica AG, priority 1993, dated 1994)", "key": {"E.faecium": {"test_system": "E.faecium", "assay": "In vitro activity against selected species (MIC50, range)", "format": "cell-based", "settings": "MIC range, medium MHA", "procedure": "(§1) In vitro activity was determined by minimum inhibitory concentration in a microorganism spectum by the agar dilution method in Mueller Hinton agar."}, "S.aureus MRSA": {"test_system": "S.aureus MRSA", "assay": "In vitro activity against selected species (MIC50, MIC90, range)", "format": "cell-based", "settings": "MIC range, medium MHA (Mueller Hinton Agar) +NaCl", "procedure": "as §1"}}, "note": "For at least one compound, name, drawing or mass did not settle the structure."}
{"smiles": "C=CC1=C(C(=O)O)N2C(=O)[C@@H](NC(=O)/C(=N\\O)c3csc(N)n3)[C@H]2SC1", "note": "[Cefdinir, reference compound]", "values": [{"measurement": "Range", "setting": "E.faecium", "result": "8->32"}, {"measurement": "Range", "setting": "S.aureus MRSA", "result": "32->32"}]}
